# Results from the supplement of paper PMC3334620.
# Whole data set: some 33,000 sequences, median “E-score (-0.5 to 0.5)” near -0.0014, cut for the highest 2% near 0.25. The list shows a part of the results.
# Target: T1, Cad1 (UniProt P24813)
# T1 sequence: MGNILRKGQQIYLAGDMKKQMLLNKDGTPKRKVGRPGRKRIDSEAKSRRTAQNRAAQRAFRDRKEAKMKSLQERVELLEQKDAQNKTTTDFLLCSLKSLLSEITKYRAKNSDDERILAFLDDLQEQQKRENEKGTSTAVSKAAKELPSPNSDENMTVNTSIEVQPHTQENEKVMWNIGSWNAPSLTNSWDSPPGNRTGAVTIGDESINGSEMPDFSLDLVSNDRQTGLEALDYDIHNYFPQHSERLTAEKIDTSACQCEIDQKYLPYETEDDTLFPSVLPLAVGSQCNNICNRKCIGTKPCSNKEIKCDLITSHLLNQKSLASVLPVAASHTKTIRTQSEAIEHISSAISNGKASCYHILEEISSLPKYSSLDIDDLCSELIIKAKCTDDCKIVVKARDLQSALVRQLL
# Assay: PBM E-score (8-mer binding enrichment) (E-score (-0.5 to 0.5)); higher = stronger / more preferred TF binding
# Conditions: protein concentration: 100 nM; construct: GST-full length
# In short: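 Universal all-10-mer Agilent arrays, fresh or stripped once, were converted to double-stranded form by primer extension. GST-tagged yeast transcription factors from PURExpress in vitro transcription/translation, full-length or DNA-binding domain only, were applied at about 100-200 nM and detected with fluorescent anti-GST. After masliner normalisation, the Universal PBM Analysis Suite scored each ungapped eight-base word together with its reverse complement by E-score.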
row,Sequence,PBM E-score
1,ACGTGGGG,-0.126
2,CTCTGCTC,-0.0577
3,AGCTTAAT,0.141
4,ACAGGGGA,-0.181
5,AGTCAGCA,0.242
6,CCTTGTCC,0.104
7,TACGTGGA,-0.14
8,CGTTGAAG,-0.178
9,ATACTTGC,0.0566
10,GCGAGTAC,0.128
11,CCTCTAGA,-0.13
12,CGGGTGGC,-0.274
13,CCGTGACA,-0.101
14,AGGCTTTG,-0.134
15,AGGTCATG,-0.0332
16,GTATCTGA,0.0184
17,GATCTGTA,-0.0378
18,ATGCTCGG,0.0283
19,TTAGTCAA,0.249
20,AGGTCAGA,-0.13
21,AAACGTCT,0.0867
22,CGTTGTCA,0.067
23,AAGTGGAT,-0.12
24,CTCCCGGC,-0.0648
25,ACGCGTGG,0.0402

# 5 records picked at random from the list so far, as already listed:
row,Sequence,PBM E-score
15,AGGTCATG,-0.0332
10,GCGAGTAC,0.128
19,TTAGTCAA,0.249
20,AGGTCAGA,-0.13
16,GTATCTGA,0.0184

# (listing goes on)

row,Sequence,PBM E-score
1,CCAGACGC,0.0161
2,CAACTAAC,0.144
3,CCTATGGA,-0.0285
4,GCGGAGGA,-0.16
5,AAACGGAA,0.266
6,CCTGGTGC,-0.0804
7,CCAGATAA,0.0761
8,GGCATTTA,-0.248
9,AACCTAAC,0.0544
10,AAGGTGGG,-0.232
11,TGCCCAAA,-0.126
12,CAACCGGC,0.162
13,ATTAGCTA,0.109
14,ATTCGCCC,-0.0599
15,ATAGCGCC,0.122
16,CAAGCAGA,0.0659
17,ATGAGCTG,-0.015
18,AGCACTAC,-0.0732
19,ATGTGTAC,0.0821
20,ACCCTGCG,-0.225
21,AAGTGCCT,-0.303
22,AACGCGCA,0.189
23,ACTGCTGA,0.132
24,ACAAACCA,0.103
25,AAATGAAG,0.00624

row,Sequence,PBM E-score
1,CTAAGCCA,-0.154
2,CTGAGTAA,0.254
3,ATAATAAC,0.114
4,ACTCCACG,-0.203
5,ATACCCTG,0.00257
6,AGAATAAG,0.0341
7,GCCATCTA,-0.162
8,CCTGTAGA,-0.0405
9,AGATCAAA,-0.0739
10,CCGTTAAC,0.0965
11,GGGCCGCA,-0.201
12,AGTCCCAG,-0.179
13,AAAAAATT,0.12
14,ACCAAGCT,0.0929
15,GGCAATCA,-0.0893
16,CATGTTGG,-0.0992
17,CACCAGGG,-0.269
18,ACGAGTAT,0.0386
19,AGTTGGAC,-0.173
20,CTCCTTGA,-0.12
21,GAGACCAC,-0.0844
22,CGATCGGA,0.0447
23,AGTTTGTA,0.0287
24,CCGACTCA,-0.133
25,CAAGAGTA,-0.0395

row,Sequence,PBM E-score
1,ATTTGAAG,0.0122
2,GACCTACC,0.0154
3,CGTATTCA,0.0834
4,ATATCGAC,0.178
5,CGATTACG,0.13
6,ATACCAGC,-0.0568
7,AGGTTGAT,-0.18
8,AGCAGATG,-0.0375
9,CCATTTCA,-0.0256
10,CGCGACTC,0.049
11,TATAGAGA,-0.0863
12,CGTGACAC,0.126
13,AAAGCGGG,-0.177
14,AATCGAAA,0.00175
15,GCAACGAC,-0.00571
16,CTCATGTA,0.118
17,GCTAACTA,0.17
18,AGTACGAG,-0.0103
19,AACGGCGT,0.057
20,CGACTTAG,0.0509
21,ACCAAACG,0.0664
22,CTACTGTC,-0.0918
23,ACTCCAGT,0.0336
24,GAGTTTAC,-0.0611
25,ACTAACAT,0.255

row,Sequence,PBM E-score
1,GCCCCTTA,-0.144
2,GCCCTAAA,-0.269
3,ACTCTTCG,0.0114
4,TGCGCACA,0.248
5,AATTATCG,0.247
6,TACTAGTA,0.273
7,ATATTACC,0.28
8,GAGGTCCC,-0.2
9,CAGCCGCC,-0.0839
10,ACTAGAGC,-0.162
11,ACATAGGA,-0.26
12,GCTCTCGA,-0.141
13,AATCGGGG,-0.241
14,GAGTTCGA,0.208
15,AATATAGC,0.0229
16,AGAAGAAA,-0.00692
17,GCTAGCAA,0.0812
18,CGCGGGGC,-0.0341
19,TAGCGAGA,0.0828
20,CCGATGCC,-0.0323
21,ATTTGCGG,0.207
22,AATCGAAG,0.182
23,CACTCCGG,0.101
24,CAATCCTG,-0.0306
25,CGCCGGAC,0.0345

row,Sequence,PBM E-score
1,ATGGCTGA,0.0987
2,AGACCCGA,0.00515
3,CCGCGTCA,-0.101
4,AGCCTAGC,-0.104
5,AACCCTCT,-0.267
6,ACCTCTTG,-0.137
7,TAGCACGA,0.121
8,TGCTACCA,0.0111
9,CTACACTC,-0.0224
10,AACCCGAA,0.0851
11,CAACGACC,-0.138
12,GTGGGAAA,0.0974
13,AGGACCCC,-0.203
14,CGGGCCCA,-0.114
15,CCGATTCA,-0.0748
16,ATTAGACC,-0.224
17,CCGCAAAA,0.0906
18,CCGGGTAC,-0.281
19,CTCACCCA,-0.169
20,GCCACGGA,-0.00423
21,AACAACTT,0.183

# Some of the entries above, set out differently:
row	Sequence	PBM E-score
14	AATCGAAA	0.00175
16	CTCATGTA	0.118
